According to US7384966B2, “2-arylbenzothiazole derivatives” (Pharminxo Limited, priority 2004, dated 2008):
“Also recorded” adds a separate entry of the source. At least one compound was matched to its structure with a doubt left.

Experiments:
[1] = test system: NCI in vitro 60 human cancer cell panel; test: NCI in vitro 60 human cancer cell panel, sulforhodamine B assay; format: cell-based; details: NCI mean GI50 graphs, FIGS. 1 and 8 to 12
Description: Results from the more extensive NCI in vitro 60 human cancer cell panel^15 corroborated the results (above). The mean GI50 values across the range of compounds (above), including the two series of esters (11-21) are an unremarkable 10-100 μM (data not shown); however, these values disguise significant cell selectivity. […] Full NCI mean GI50 graphs for compounds (1,2,3,4,101,102) are included herein as FIGS. 1 and 8 to 12.
The results shown on FIG. 1 were generated by treating the cells with an active agent for 48 hours, in this case compound 1, before determination of viability by sulforhodamine B assay.

[2] = test system: DNA of MCF-7, MDA 468, KM12 and HCC 2998 cells; test: DNA adduct formation; format: cell-based, human
[3] = test system: MCF-7; test: Growth inhibition alone or in combination with resveratrol, MCF-7; format: cell-based, human; details: MCF-7 (cyp lal-inducible), resveratrol 51 μM
Description: The results shown in FIGS. 3a and 3b were generated using MCF-7 (FIG. 3a) and HCC 2998 (FIG. 3b) cells. The said cells were treated with DF 203 or compound 1, alone or in combination with resveratrol (51 μM) an inhibitor of cyp lal activity. It can be seen that in MCF-7 cells (cyp lal-inducible) the activity of DF 203 was abolished.

COc1ccc(-c2nc3cc(F)ccc3s2)cc1OC [Compound 1, 2-(3,4-dimethoxyphenyl)-5-fluorobenzothiazole]
sensitivity of cancer cell panels / antitumour activity in vitro [1]: exquisite activity in the colon and NSCL sub-panels; also recorded: lung and colon cancer cells to be particularly sensitive
DNA adducts generated ([2]; MCF-7, MDA 468, KM12 and HCC 2998 cells, 1 μM): Two distinct major adducts and one minor adduct
DNA adducts formed ([2]; MCF-7, MDA 468, KM 12 and HCC 2998 cells, 10 μM, 24 hours): two distinct major adducts and one minor adduct
effect of resveratrol on growth inhibitory activity [3]: no effect on the growth inhibitory activity; also recorded: still potently inhibited the growth of these cells
